Laboratory results reported in article PMC5792031.
Results are given in words; binding and its absence hold for the method and conditions named. In cells and extracts the contact can be indirect. Some binding calls cover weakened binding; strength is not graded here. Where a sequence is shown, tags or fusion partners need not be part of it.

The chains behind the UniProt entries cited, without tags or fusion partners. Where a name states a change or a piece, a line headed by the entry shows the natural chain unless it says otherwise. Residues count along the entry.
UniProt P15682: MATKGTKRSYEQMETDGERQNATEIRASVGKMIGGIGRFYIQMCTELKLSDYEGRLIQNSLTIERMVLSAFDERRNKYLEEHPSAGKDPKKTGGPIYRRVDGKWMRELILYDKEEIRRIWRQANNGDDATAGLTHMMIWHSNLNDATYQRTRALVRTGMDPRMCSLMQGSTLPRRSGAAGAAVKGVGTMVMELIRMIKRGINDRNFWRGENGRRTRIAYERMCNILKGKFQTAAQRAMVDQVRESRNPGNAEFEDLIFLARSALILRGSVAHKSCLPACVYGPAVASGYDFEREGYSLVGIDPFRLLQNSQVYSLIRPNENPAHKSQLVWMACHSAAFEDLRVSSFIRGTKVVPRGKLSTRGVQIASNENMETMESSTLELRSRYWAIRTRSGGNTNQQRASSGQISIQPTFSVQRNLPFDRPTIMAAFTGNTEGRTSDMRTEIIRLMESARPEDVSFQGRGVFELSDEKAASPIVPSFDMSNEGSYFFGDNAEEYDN
GST-NP1-351 (influenza A virus A/WSN/33 (WSN, H1N1)): residues 1-351 of P15682
GST-NP1-271 (influenza A virus A/WSN/33 (WSN, H1N1)): residues 1-271 of P15682

B1: Flag-tagged PLSCR1 (protein, UniProt O15162-1 1-318)
chain: MDKQNSQMNASHPETNLPVGYPPQYPPTAFQGPPGYSGYPGPQVSYPPPPAGHSGPGPAGFPVPNQPVYNQPVYNQPVGAAGVPWMPAPQPPLNCPPGLEYLSQIDQILIHQQIELLEVLTGFETNNKYEIKNSFGQRVYFAAEDTDCCTRNCCGPSRPFTLRIIDNMGQEVITLERPLRCSSCCCPCCLQEIEIQAPPGVPIGYVIQTWHPCLPKFTIQNEKREDVLKISGPCVVCSCCGDVDFEIKSLDEQCVVGKISKHWTGILREAFTDADNFGIQFPLDLDVKMKAVMIGACFLIDFMFFESTGSQEQKSGVW
B2: PLSCR1 (untagged, pCAGGS-PLSCR1) (protein, UniProt O15162-1 1-318)
chain: B1 chain

Tests used:
[1] = biological target: GST-NP1-271 (influenza A virus A/WSN/33 (WSN, H1N1)) (UniProt P15682); test: pull-down
[2] = biological target: GST-NP1-351 (influenza A virus A/WSN/33 (WSN, H1N1)) (UniProt P15682); test: pull-down
[3] = biological target: GST-WSNNP (influenza A virus A/WSN/33 (WSN, H1N1)) (UniProt P15682); test: pull-down; only the target purified

| Binder | binding [1] | binding [2] | binding [3] |
| --- | --- | --- | --- |
| B1 | binds | binds | – |
| B2 | – | – | binds |
